Experimental data: patent US20090270312A1, “HIV-I GP41 FUSION PEPTIDES FOR IMMUNOMODULALTION” (priority 2005, published 2009)
Not every detail of the peptide structures is certain; ends, links or a residue may be inferred. Residues, ends and D or L forms follow the SMILES beside them.

System: Lewis rats
Assay: Adjuvant Arthritis (AA)
Format: in vivo, rat
Conditions: 100 μg peptide in IFA with Mt at AA induction
Experimental: Induction and Assessment of Adjuvant Arthritis (AA). To test the effect of FP on T-cell activation in vivo, AA was used as a model system. AA was induced by injecting 50 μl of Mt suspended in IFA (0.5 mg/ml) at the base of the tail. At the time of AA induction, each rat also received 100 μg of FP or control peptide, or PBS dissolved in 50 μl of IFA and mixed with Mt/IFA used to induce AA. The day of AA induction was designated as day 0. Disease severity was assessed by direct observation of all 4 limbs in each animal. A relative score between 0 and 4 was assigned to each limb, based on the degree of joint inflammation, redness and deformity; thus the maximum possible score for an individual animal was 16 (Quintana et al., 2002). The mean AA score (±SEM) is shown for each experimental group. Arthritis was also quantified by measuring hind limb diameter with a caliper. Measurements were taken on the day of the induction of AA and 26 days later (at the peak of AA); the results are presented as the mean±SEM of the difference between the two values for all the animals in each group. The person who scored the disease was blinded to the identity of the groups.
AA was induced in rats as indicated above; at the time of AA induction, each rat also received 100 μg of IFFA or PBS dissolved in 50 μl of IFA and mixed with Mt/IFA used to induce AA. Disease severity was assessed as described above.

SMILES: CC[C@H](C)[C@H](NC(=O)[C@H](CS)NC(=O)[C@H](CCCNC(=N)N)NC(=O)[C@H](CC(C)C)NC(=O)[C@H](CC(C)C)NC(=O)[C@H](C)NC(=O)[C@H](CS)NC(=O)CNC(=O)CNC(=O)CNC(=O)[C@H](CC(C)C)NC(=O)[C@@H](N)C(C)C)C(=O)N1CCC[C@H]1C(=O)N[C@@H](C)C(=O)N[C@@H](CC(C)C)C(=O)N[C@@H](CC(=O)O)C(=O)N[C@@H](CO)C(=O)N[C@@H](CC(C)C)C(=O)N[C@H](C(=O)N1CCC[C@H]1C(=O)N[C@@H](C)C(=O)N[C@@H](CC(N)=O)C(=O)N[C@@H](CCC(=O)O)C(=O)N[C@@H](CC(=O)O)C(=O)O)[C@@H](C)O [p277, reference compound] (H-VLGGGCALLRCIPALDSLTPANED-OH)
- arthritis, clinical score: did not inhibit AA
